# From PubChem BioAssay AID540256 (National Center for Advancing Translational Sciences (NCATS), 2011)
# The whole screen tested about 300,000 compounds, of which about 3,700 (1.2%) were called active. This list was built around the results that the source calls inconclusive (neither active nor inactive); the mix of calls is not that of the screen. Calls come from the whole dose curve; tested in HEK293 cells. Potencies of inconclusive entries are doubtful fits and often do not repeat.
# Experiment: qHTS for Inhibitors of binding or entry into cells for Lassa Virus; note: nearly all actives have a fitted effect of over 50% in size
# Conditions: Lassa virus pseudotype entry inhibition, cell reporter; series mostly up to 37.9 µM
# Potency is the fitted concentration of half-maximal effect.
row,SMILES,Potency
1,CC1CCN(C(=O)c2cnn(-c3cccc(Cl)c3)c2C2CCN(C(=O)OC(C)(C)C)CC2)CC1,"inconclusive: 4.47 µM [inhibitor, full curve, poor fit]"
2,COc1ccc(-c2c3c(=O)n(C)c(=O)n(C)c3cn2Cc2ccccn2)cc1,inactive
3,CC(=O)Oc1ccccc1-c1nc(C)nc(N(C)C(C)=O)n1,inactive
4,Cc1cc(NC(=O)c2sc(Nc3ccc(F)cc3)nc2N)no1,inactive
5,Cc1ccc(S(=O)(=O)N2CCN(C(=O)c3ccc(N4CCCCC4)c([N+](=O)[O-])c3)CC2)cc1,"inconclusive: 3.55 µM [inhibitor, partial curve, poor fit]"
6,COc1cc(C(=O)N2CCN(c3ccccc3)CC2)c2ccccc2n1,"inconclusive: 4.47 µM [inhibitor, full curve, poor fit]"
7,CCOC(=O)Cn1c(=O)n(C2CCCCC2)c2nc(-c3ccc(Cl)cc3)nc(C(N)=O)c21,inactive
8,Clc1ccc(-c2cn3nc4c(nc3n2)CCCC4)cc1,active: 0.708 µM
9,CCCNC(=O)c1cc(-c2ccco2)on1,"inconclusive: 0.82 µM [inhibitor, full curve, poor fit]"
10,Cc1cc(Cl)ccc1OCc1nc(-c2ccncc2)no1,"inconclusive: 20 µM [inhibitor, partial curve, poor fit]"
11,COc1ccc(NC(=O)c2ccc(-c3csc(C)n3)cc2)cc1,"inconclusive: 7.08 µM [inhibitor, partial curve]"
12,Cc1nnc(NC(=O)c2cc3n(n2)C(C(F)(F)F)CC(C2CC2)N3)s1 (stereo unspecified),inactive
13,Cc1cc(-c2nc3ncccc3o2)ccc1NC(=O)c1ccc(Br)cc1,inactive
14,Cc1cc(C)c(NC(=O)c2cc3c(=O)n4ccccc4nc3n2C)c(C)c1,inactive
15,CC(C)CNc1nnnc2c1sc1nc(N3CCOCC3)c3c(c12)CC(C)(C)SC3,active: 14.1 µM
16,CCCCn1c(N)c(N(CCOC)C(=O)c2ccc(-c3ccc(C(C)=O)cc3)o2)c(=O)[nH]c1=O,inactive
17,CCN(CC)c1cc2nc(C)n(Cc3ccccc3)c(=O)c2cc1NC(=O)C1CC1,inactive
18,CCOc1ccc(NS(=O)(=O)c2ccc(C(=O)NCC(c3ccccc3OC)N3CCCC3)cc2)cc1 (stereo unspecified),"inconclusive: 22.4 µM [inhibitor, single point]"
19,Cc1cccc(CCNC(=O)CC2C(=O)NCCN2CC2CCCCC2)n1 (stereo unspecified),inactive
20,COc1ccc(C2=NN(CC(=O)NCCCN(C)c3ccccc3)C(=O)CC2)cc1,inactive
21,CCC(C)NS(=O)(=O)c1ccc(S(=O)(=O)N2CCCC3(CCCCC3)C2)cc1 (stereo unspecified),"inconclusive: 20.6 µM [inhibitor, single point]"
22,N#C/C(=C\Nc1ccc2c(c1)OCCO2)C(=O)NCc1ccco1,inactive
23,Cc1cccc(OCc2nc(-c3cccnc3)no2)c1,"inconclusive: 11.2 µM [activator, partial curve, poor fit]"
24,CCOC(=O)c1c(NC(=O)OC)sc(C(=O)N(CC)CC)c1C,inactive

# Some values from above:
# Potency, CCOC(=O)Cn1c(=O)n(C2CCCCC2)c2nc(-c3ccc(Cl)cc3)nc(C(N)=O)c21 reads inactive
# Potency, Cc1ccc(S(=O)(=O)N2CCN(C(=O)c3ccc(N4CCCCC4)c([N+](=O)[O-])c3)CC2)cc1 reads inconclusive: 3.55 µM [inhibitor, partial curve, poor fit]

# Nothing new here: entries from further up.
row,SMILES,Potency
2,COc1ccc(-c2c3c(=O)n(C)c(=O)n(C)c3cn2Cc2ccccn2)cc1,inactive
3,CC(=O)Oc1ccccc1-c1nc(C)nc(N(C)C(C)=O)n1,inactive
4,Cc1cc(NC(=O)c2sc(Nc3ccc(F)cc3)nc2N)no1,inactive

# Next part

row,SMILES,Potency
1,O=C(O)c1cccc(Cn2c(Cl)c(/C=N/NC(=O)c3ccccc3)sc2=O)c1,inactive
2,COc1cccc(N(C(=O)Cn2nnc(-c3ccc(C)cc3)n2)C(C(=O)NC(C)(C)C)c2c[nH]c3ccccc23)c1 (stereo unspecified),"inconclusive: 16.4 µM [inhibitor, single point]"
3,CCOC(=O)c1c(C)[nH]c(C(=O)/C(C#N)=C/c2ccc(OCC)cc2)c1C,inactive
4,COC(=O)c1ccc(/C=C/c2ccc3cccc(OC(C)=O)c3n2)cc1,"inconclusive: 35.5 µM [inhibitor, single point]"
5,CCCCOc1ccc(C(=O)N(Cc2ccc(C(C)C)cc2)C2CCS(=O)(=O)C2)cc1 (stereo unspecified),"inconclusive: 12.6 µM [inhibitor, partial curve, poor fit]"
6,O=C(c1ccccc1Cl)n1nc(-c2cccnc2)nc1NCc1ccc(F)cc1,inactive
7,Cn1c(SCC(=O)c2cccs2)nnc1-c1ccco1,"inconclusive: 7.3 µM [activator, single point]"
8,COc1cc(NC(=O)c2cc([N+](=O)[O-])ccc2Br)ccc1NC(=O)c1ccco1,"inconclusive: 0.794 µM [inhibitor, full curve, poor fit]"
9,CSc1ncccc1C(=O)OCC(=O)Nc1ccc(C)c(S(=O)(=O)N2CCOCC2)c1,"inconclusive: 0.501 µM [inhibitor, single point]"
10,CCCCC(=O)Nc1nnc(SCC(=O)Nc2ccc(OC)cc2)s1,inactive
11,CCCCCC(=O)Nc1ccc(S(=O)(=O)Nc2nccc(C)n2)cc1,inactive
12,COc1ccc2[nH]c(C(=O)Nc3ccc(C)c(F)c3)cc2c1,inactive
13,CCOc1ccc(NC(=S)N(CCc2c(C)[nH]c3ccc(C)cc23)Cc2ccco2)cc1,"inconclusive: 16.4 µM [inhibitor, single point]"
14,CCOC(=O)C(NC(=O)CC)(Nc1sc2c(c1C(=O)OC)CCN(C)C2)C(F)(F)F (stereo unspecified),inactive
15,CC(C)OC(=O)CSc1nc2ncccc2[nH]1,"inconclusive: 5.17 µM [inhibitor, partial curve, poor fit]"
16,CCN(CC)CCNc1c2c(c(C#N)c3nc4ccccc4n13)CCCC2,inactive
17,O=C(CCSc1nc(-c2ccco2)cc(C(F)(F)F)n1)N1CCN(c2ccccn2)CC1,"inconclusive: 17.8 µM [inhibitor, single point]"
18,Cn1c(N)c(C(=O)COc2ccc(Cl)cc2Cl)c(=O)n(C)c1=O,"inconclusive: 7.08 µM [inhibitor, full curve, poor fit]"
19,CC(=O)c1cc(C(=O)Nc2cc(C)cc(C)c2)c2ccccn12,inactive
20,CCCOC1CCCN(C(=O)CCc2nnc(Cc3cccc(C)c3)o2)C1 (stereo unspecified),inactive
21,CN(C)S(=O)(=O)c1cccc(C(=O)N2CCC(C(=O)O)(c3ccccc3)CC2)c1,"inconclusive: 4.47 µM [inhibitor, single point]"
22,Cc1nc2ccc(S(=O)(=O)NCC(=O)N3CCN(c4ccccc4)CC3)cc2s1,inactive
23,COc1ccc(C2=NN(C(=O)CN3CCCCC3)C(c3ccc(C)cc3)C2)cc1 (stereo unspecified),inactive
24,S=c1[nH]nc(C2CCCCC2)n1Cc1ccccc1,"inconclusive: 2.82 µM [inhibitor, single point]"

row,SMILES,Potency
1,CCOC(=O)c1[nH]c2ccc(C)cc2c1NC(=O)CN1CCCCC1,inactive
2,Cn1c(NCc2cc(Br)ccc2O)nc2ccccc21,"inconclusive: 14.6 µM [inhibitor, partial curve, poor fit]"
3,Cc1nc(N2CCCCC2)c2c(C)c(C(=O)Nc3ccccc3C(F)(F)F)sc2n1,"inconclusive: 39.8 µM [inhibitor, partial curve, poor fit]"
4,CN1CCSc2ccc(C(=O)Nc3cccc(F)c3)cc21,"inconclusive: 22.4 µM [inhibitor, single point]"
5,O=C(Nc1cc(N2CCCCC2)ncn1)c1ccc(F)cc1,inactive
6,CCOC(CNc1cc(C)nc2c(-c3ccccc3OC)c(C)nn12)OCC,"inconclusive: 25.1 µM [inhibitor, partial curve, poor fit]"
7,Cc1ccc(S(=O)(=O)c2nc(-c3cccc(C)c3)oc2N2CCN(c3ccccc3)CC2)cc1,"inconclusive: 1.26 µM [inhibitor, full curve, poor fit]"
8,CC(=O)c1ccc(N2CCN(Cc3cc(=O)n4c(-c5ccccc5)csc4n3)CC2)cc1,"inconclusive: 35.5 µM [inhibitor, single point]"
9,CCCSc1ncc(Cl)c(C(=O)Nc2nc3ccc(OCC)cc3s2)n1,inactive
10,Cc1nc2nc(SCC(=O)NCCc3ccc(Cl)cc3)nn2c(C)c1Cc1ccccc1,inactive
11,O=C(Nc1ccc2c(c1)OCCO2)c1ccc(S(=O)(=O)N2CCCCC2)cc1,"inconclusive: 29.1 µM [inhibitor, single point]"
12,Cc1cccc(/C=N/NC(=O)c2cc(Br)ccc2OCc2ccccc2)n1,"inconclusive: 11.2 µM [inhibitor, single point]"
13,Cc1ccc(C(=O)COC(=O)c2ccccc2NC(=O)c2ccccc2)cc1[N+](=O)[O-],inactive
14,COCOCCn1cc(CN2CCS(=O)(=O)N(Cc3ccc(-c4ccc(Cl)c(Cl)c4)cc3)C(C(C)C)C2=O)nn1 (stereo unspecified),"inconclusive: 28.1 µM [inhibitor, partial curve, poor fit]"
15,Cc1cccc(C)c1-n1ncc(C(=O)N2CCN(c3ccccn3)CC2)c1C1CCN(C(=O)OC(C)(C)C)CC1,"inconclusive: 6.31 µM [inhibitor, partial curve, poor fit]"
16,CCOC(=O)N/N=C\c1ccc(-c2cc(Cl)ccc2Cl)o1,"inconclusive: 35.5 µM [inhibitor, single point]"
18,CC(C)(C)CC(C)(C)NCC(O)COCCOc1ccc(Br)cc1 (stereo unspecified),active: 13 µM
19,COc1ccc(OC)c(NC(=O)Cn2cc(C=O)c3ccccc32)c1,"inconclusive: 7.94 µM [inhibitor, partial curve, poor fit]"
20,COc1cccc(OC)c1Oc1ccc(C(F)(F)F)cn1,"inconclusive: 0.231 µM [activator, full curve, poor fit]"
21,CN(C(=O)COc1ncnc2ccccc12)C1CCCCC1,"inconclusive: 35.5 µM [inhibitor, single point]"
22,CC1CCN(S(=O)(=O)c2ccc(C(=O)Nc3sc4c(c3C(N)=O)CC(C)(C)NC4(C)C)cc2)CC1,inactive
23,Cc1ccc(CN(C)c2nc(-c3cccnc3)nc3ccccc23)o1,"inconclusive: 18.3 µM [inhibitor, partial curve, poor fit]"

# Some of the entries so far, bar-delimited.
row | SMILES | Potency
4 | Cc1cc(NC(=O)c2sc(Nc3ccc(F)cc3)nc2N)no1 | inactive
13 | Cc1cc(-c2nc3ncccc3o2)ccc1NC(=O)c1ccc(Br)cc1 | inactive
